Data source: PubChem BioAssay AID624150 (Cancer Research UK Cambridge, 2012)
The whole screen tested 331 reagents; this is an unselected part. 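Each arm had three replicate z-scores, but only the first replicate is printed; higher values mean more differentiation marker per cell.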 Not all columns of the deposit are shown. Reagent sequences are not shown.

Purpose: 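Effect of silencing chromatin genes on per-cell differentiation marker amount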 (primary screen)
Cells: primary human epidermal keratinocytes
Reagents: siRNA pool against human genes, 1-2 µM siRNA in 20 µl nucleofection
Duration: 72 h after transfection plus 48 h differentiation (about 5 days)
Challenge: five arms for 48 h: vehicle, AG1478 10 µM, BMP2/7 200 ng/ml, both together, or 10% serum
Detection: 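Per-cell amount of a differentiation marker read by infrared scanning of the plate, given as a z-score within each plate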
Scale: z-score, vehicle and z-score, AG1478 10 µM: higher = more differentiation marker per cell

PHF12 — z-score, vehicle: -0.233; z-score, AG1478 10 µM: 0.829
CBX3 — z-score, vehicle: -2.09; z-score, AG1478 10 µM: -0.644
MLH1 — z-score, vehicle: 0.707; z-score, AG1478 10 µM: 0.511
HIF1AN — z-score, vehicle: -0.307; z-score, AG1478 10 µM: 0.321
SMARCA1 — z-score, vehicle: -0.248; z-score, AG1478 10 µM: -0.412
HDAC7 — z-score, vehicle: 0.815; z-score, AG1478 10 µM: -0.438
PYGO2 — z-score, vehicle: -0.875; z-score, AG1478 10 µM: -0.399
HSPBAP1 — z-score, vehicle: -0.731; z-score, AG1478 10 µM: 0.17
KDM5B — z-score, vehicle: -0.606; z-score, AG1478 10 µM: -1.03
CHD6 — z-score, vehicle: -1.04; z-score, AG1478 10 µM: -1.18
PRDM14 — z-score, vehicle: 3.16; z-score, AG1478 10 µM: 0.384
MSH6 — z-score, vehicle: -1.15; z-score, AG1478 10 µM: -0.568
TARBP1 — z-score, vehicle: 0.467; z-score, AG1478 10 µM: 0.05
PHF6 — z-score, vehicle: 0.661; z-score, AG1478 10 µM: 0.0804
PRDM4 — z-score, vehicle: 0.135; z-score, AG1478 10 µM: -0.159
SMYD2 — z-score, vehicle: 0.213; z-score, AG1478 10 µM: 0.437
RARA — z-score, vehicle: 0.666; z-score, AG1478 10 µM: 0.0729
PRMT1 — z-score, vehicle: 1.29; z-score, AG1478 10 µM: 1.17
ATAD2 — z-score, vehicle: -0.871; z-score, AG1478 10 µM: 0.464
SETD2 — z-score, vehicle: -0.229; z-score, AG1478 10 µM: 1.3
KMT5A — z-score, vehicle: -0.467; z-score, AG1478 10 µM: 0.524
HDAC5 — z-score, vehicle: -0.332; z-score, AG1478 10 µM: 0.375
ASXL1 — z-score, vehicle: 0.17; z-score, AG1478 10 µM: -0.663
SMARCA5 — z-score, vehicle: 3.61; z-score, AG1478 10 µM: 2.86
ZCWPW1 — z-score, vehicle: -0.254; z-score, AG1478 10 µM: 0.11
NSD1 — z-score, vehicle: -1.17; z-score, AG1478 10 µM: -1.19
KMT5C — z-score, vehicle: 0.0923; z-score, AG1478 10 µM: 0.4
TRIM24 — z-score, vehicle: 0.189; z-score, AG1478 10 µM: -0.107

4 successive records from above, for reference:
SMYD2 — z-score, vehicle: 0.213; z-score, AG1478 10 µM: 0.437
RARA — z-score, vehicle: 0.666; z-score, AG1478 10 µM: 0.0729
PRMT1 — z-score, vehicle: 1.29; z-score, AG1478 10 µM: 1.17
ATAD2 — z-score, vehicle: -0.871; z-score, AG1478 10 µM: 0.464
